Publication PMC3277884
Results are given in words; binding and its absence hold for the method and conditions named. Binding seen in cells or lysates may run through a third protein. Here binding means that the protein was enriched with, or labelled near, the bait; the list need not be complete. For some assays here: Where a sequence is shown, tags or fusion partners need not be part of it.

Chains of the proteins cited; added tags and fusions are not shown.
UniProt Q9CQJ4: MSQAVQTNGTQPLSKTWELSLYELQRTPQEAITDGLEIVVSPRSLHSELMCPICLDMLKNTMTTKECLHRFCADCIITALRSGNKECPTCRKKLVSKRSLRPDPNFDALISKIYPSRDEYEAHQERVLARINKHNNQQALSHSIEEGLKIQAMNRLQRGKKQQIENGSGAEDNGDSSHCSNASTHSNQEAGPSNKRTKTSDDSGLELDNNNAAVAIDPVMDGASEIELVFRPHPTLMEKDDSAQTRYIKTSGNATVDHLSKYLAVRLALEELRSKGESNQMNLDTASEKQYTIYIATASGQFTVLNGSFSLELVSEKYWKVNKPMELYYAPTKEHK

Experiments:
[1] = target: Cbx7-EGFP (UniProt Q8VDS3); assay: affinity purification with mass spectrometry; GFP IP on GFP nanotrap beads from SILAC-labeled Cbx7-EGFP (heavy) and EGFP (light) ESCs
[2] = target: Ring1b (mouse (endogenous in ESCs)) (UniProt Q9CQJ4); assay: affinity purification with mass spectrometry; IP with a monoclonal anti-Ring1b antibody from SILAC-labeled nuclear extracts of ESCs (heavy) and differentiated ESCs (light)
[3] = target: T1, Cbx7-EGFP, Q8VDS3; assay: affinity purification with mass spectrometry; GFP IP on GFP nanotrap beads from SILAC-labeled Cbx7-EGFP (heavy) and EGFP (light) ESCs; settings: remark: other sources report otherwise
T1 chain: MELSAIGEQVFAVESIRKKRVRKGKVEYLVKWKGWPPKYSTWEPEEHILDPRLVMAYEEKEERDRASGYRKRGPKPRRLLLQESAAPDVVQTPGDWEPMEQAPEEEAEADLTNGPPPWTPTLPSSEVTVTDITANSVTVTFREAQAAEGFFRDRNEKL

B1: Phc2 (protein, UniProt Q9QWH1 1-850)
chain: MENELPVPHTSNRASVTTNTSGTNSSSGCISSSGGGGGSGGRPTAPQISVYSGIPDRQTVQVIQQALHRQPSTAAQYLQQMYAAQQQHLMLQTAALQQQHLSSAQLQSLAAVQQASLVANRQGSTPGSSVSSQAPAQSSSLNLAASPAAAQLINRAQSVNSAAASGLAQQAVLLGNTSSPALTASQAQMYLRAQMLIFTPTATVATVQPELCTGSPARPPTPAQVQNLTLRTQQTPAAAASGPPPTQPVLPSLALKPTPSSSQPLPAPPQGRTMAQGSPAGAKPSGTDNAPETLKAGDGNCNMEGRPGPGRAVPAVATHPLIAPAYAHLQSHQLLPQPPAKHPQPQFVAQQQPQPPRPAPQVQSQPQLASVSPSLALQSSPEDHALPLGSVTQALPLQCSTTHVHKPGNSQQCHLPTLDTGSQNGHPEGGSHPPQRRFQHTSAVILQVQPASPVTPQQCAPDDWKEVVPAEKSVPVARPGPSPHQQAIIPAIPGGLPGPKSPNIQQCPAHETGQGIVHALTDLSSPGMTSGNGNSASSIAGTAPQNGENKPPQAIVKPQILTHVIEGFVIQEGAEPFPVGRSSLLVGNLKKKYAQGFLPEKPPQQDHTTTTDSEMEEPYLQESKEEGTPLKLKCELCGRVDFAYKFKRSKRFCSMACAKRYNVGCTKRVGLFHSDRSKLQKAGTTTHNRRRASKASLPTLTKDTKKQPSGTVPLSVTAALQLAHSQEDSSRCSDNSSYEEPLSPISASSSTSRRRQGQRDLDLPDMHMRDLVGVGHHFLPSEPTKWNVEDVYEFIRSLPGCQEIAEEFRAQEIDGQALLLLKEDHLMSAMNIKLGPALKIYARISMLKDS
With B1 the binding [1] was “binds” and the binding [2] was “binds”.

B2: Mblr (protein, UniProt Q99NA9 1-353)
chain: MDEAETDATENKRASEAKRASAMPPPPPPPPPISPPALIPAPAAGEEGPASLGQAGAAGCSRSRPPALEPERSLGRLRGRFEDYDEELEEEEEMEEEEEEEEEMSHFSLRLESGRADSEDEEERLINLVELTPYILCSICKGYLIDATTITECLHTFCKSCIVRHFYYSNRCPKCNIVVHQTQPLYNIRLDRQLQDIVYKLVINLEEREKKQMHDFYKERGLEVPKPAAPQPVPSSKGKTKKVLESVFRIPPELDMSLLLEFIGANEDTGHFKPLEKKFVRVSGEATIGHVEKFLRRKMGLDPACQVDIICGDHLLERYQTLREIRRAIGDTAMQDGLLVLHYGLVVSPLKIT
In the case of B2, the binding [1] is reported as “binds” and the binding [2] is reported as “binds”.

B3: Phc1 (protein, UniProt Q64028 1-1010)
chain: METESEQNSSSTNGSSSSGASSRPQIAQMSLYERQAVQALQALQRQPNAAQYFHQFMLQQQLSNAQLHSLAAVQQATIAASRQASSPNSSTAQQQTATTQASMNLATTSAAQLISRSQSVSSPSATTLTQSVLLGNTTSPPLNQSQAQMYLRPQLGNLLQVNRTLGRNVPLASQLILMPNGAVAAVQQEVPPAQSPGVHADADQVQNLAVRNQQASAQGPQMPGSTQKAIPPGASPVSGLSQTSSQALAVAQASSGASGQSLNLSQAGGGSGNSLPGSMGPGGGGQAPGGLGQLPSSGLTGGSCPRKGTGVVQPLPAAQTVTVSQGSQTEAESAAAKKAEADGSGQQSVGMNLTRTATPAPSQTLISSATYTQIQPHSLIQQQQQIHLQQKQVVIQQQIAIHHQQQFQHRQSQLLHTATHLQLAQQQQQQQQQQQQQQQQQQQQQQGTTLTAPQPPQVPPTQQVPPSQSQQQAQTLVVQPMLQSSPLTLPPEPTSKPPIPIQSKPPVAPIKPPQLGAAKMSATQQPPPHIPVQVVGTRQPGSAQAQALGLAQLAAAVPTPRGITGAVQPGQAHLASSPPSSQAAPGALQECPPALAAGMTLAPVQGTAHVVKGGPTASSPVVAQVPAAFYMQSVHLPGKAQTLAVKRKAESEEERDDLSALASVLPTKASPAAESPKVIEEKNSLGEKAEPVASLNANPPNSDLVALAPTPSAPPPTLALVSRQMGDSKPPQAIVKPQILTHIIEGFVIQEGAEPFPVGCSQFLKETKKPLQAGLPTGLNESQPSGPLGGDSPSVELEKKANLLKCEYCGKYAPAEQFRGSKRFCSMTCAKRYNVSCSHQFRLKRKKMKEFQEASYARVRRRGPRRSSSDIARAKIQGKRHRGQEDSSRGSDNSSYDEALSPTSPGPLSVRAGHGERDLGNTITTPSTPELQGINPVFLSSNPSQWSVEEVYEFIASLQGCQEIAEEFRSQEIDGQALLLLKEEHLMSAMNIKLGPALKICAKINVLKET
B3 was tested, and the binding [2] was “binds”.

B4: Mel18 (protein, UniProt P23798 1-342)
chain: MHRTTRIKITELNPHLMCALCGGYFIDATTIVECLHSFCKTCIVRYLETNKYCPMCDVQVHKTRPLLSIRSDKTLQDIVYKLVPGLFKDEMKRRRDFYAAYPLTEVPNGSNEDRGEVLEQEKGALGDDEIVSLSIEFYEGVRDREEKKNLTENGDGDKEKTGVRFLRCPAAMTVMHLAKFLRNKMDVPSKYKVEILYEDEPLKEYYTLMDIAYIYPWRRNGPLPLKYRVQPACKRLTLPTVPTPSEGTNTSGASECESVSDKAPSPATLPATSSSLPSPATPSHGSPSSHGPPATHPTSPTPPSTAAGTTTATNGGTSNCLQTPSSTSRGRKMTVNGAPCPP
With B4 the binding [2] was “binds”.

B5: Mel18, P23798 1-342 (protein)
chain: B4 chain
B5 was tested, and the binding [3] was “binds”.

B6: Phc1, Q64028 1-1010 (protein)
chain: B3 chain
In the case of B6, the binding [3] is reported as “binds”.
